Assay results published in publication PMC6126843, “A dual-specific macrophage colony-stimulating factor antagonist of c-FMS and αvβ3 integrin for osteoporosis therapy” (PLoS Biology, 2018).

Chains of the proteins cited; added tags and fusions are not shown. Lines headed by an entry give the natural chain unless they say otherwise; changes in a name come on top. Residues count along the entry.
UniProt P07333, residues 20-972: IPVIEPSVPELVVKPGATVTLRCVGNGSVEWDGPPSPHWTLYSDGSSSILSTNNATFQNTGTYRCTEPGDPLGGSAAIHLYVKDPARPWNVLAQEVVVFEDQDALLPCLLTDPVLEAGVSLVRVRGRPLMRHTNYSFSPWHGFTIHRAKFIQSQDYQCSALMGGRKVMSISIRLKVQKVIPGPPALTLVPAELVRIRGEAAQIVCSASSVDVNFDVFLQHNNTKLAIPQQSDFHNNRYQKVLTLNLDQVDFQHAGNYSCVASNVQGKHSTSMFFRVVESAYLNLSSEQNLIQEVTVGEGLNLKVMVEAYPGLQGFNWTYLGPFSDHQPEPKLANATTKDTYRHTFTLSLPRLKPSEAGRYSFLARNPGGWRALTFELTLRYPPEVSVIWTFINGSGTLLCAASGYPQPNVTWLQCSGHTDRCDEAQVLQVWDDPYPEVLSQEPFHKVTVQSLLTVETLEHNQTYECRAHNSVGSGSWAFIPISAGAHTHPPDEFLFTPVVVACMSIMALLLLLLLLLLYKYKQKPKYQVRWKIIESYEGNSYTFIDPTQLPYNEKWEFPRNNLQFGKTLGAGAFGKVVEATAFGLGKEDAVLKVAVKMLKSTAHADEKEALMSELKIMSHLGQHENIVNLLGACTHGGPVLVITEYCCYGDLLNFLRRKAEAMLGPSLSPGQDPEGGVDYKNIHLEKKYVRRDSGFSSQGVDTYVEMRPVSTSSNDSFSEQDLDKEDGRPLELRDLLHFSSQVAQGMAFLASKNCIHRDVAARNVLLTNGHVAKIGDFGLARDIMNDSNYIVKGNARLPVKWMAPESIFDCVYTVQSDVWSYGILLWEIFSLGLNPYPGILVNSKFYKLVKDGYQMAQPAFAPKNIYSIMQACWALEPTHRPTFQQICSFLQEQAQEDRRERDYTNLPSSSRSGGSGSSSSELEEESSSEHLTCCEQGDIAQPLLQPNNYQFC
UniProt P09603: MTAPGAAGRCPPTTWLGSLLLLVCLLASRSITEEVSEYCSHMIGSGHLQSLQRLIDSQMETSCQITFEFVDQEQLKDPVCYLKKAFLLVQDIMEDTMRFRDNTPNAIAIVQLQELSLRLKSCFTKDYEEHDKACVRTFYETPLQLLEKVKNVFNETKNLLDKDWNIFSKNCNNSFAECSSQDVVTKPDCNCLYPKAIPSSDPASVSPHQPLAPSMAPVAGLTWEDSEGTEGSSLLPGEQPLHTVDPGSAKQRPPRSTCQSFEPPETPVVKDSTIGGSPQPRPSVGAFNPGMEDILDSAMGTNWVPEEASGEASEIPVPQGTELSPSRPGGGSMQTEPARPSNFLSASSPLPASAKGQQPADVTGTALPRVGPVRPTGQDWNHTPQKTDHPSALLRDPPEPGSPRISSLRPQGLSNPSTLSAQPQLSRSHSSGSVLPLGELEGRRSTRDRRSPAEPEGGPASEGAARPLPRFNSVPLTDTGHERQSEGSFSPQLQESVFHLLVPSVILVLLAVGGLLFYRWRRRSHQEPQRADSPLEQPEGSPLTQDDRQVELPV

Target: c-FMS on MDA-MB-231 cells (human (endogenous in MDA-MB-231)) (UniProt P07333)
Test: flow cytometry on cells; competition on MDA-MB-231 cells: 1 μM labelled variant 5.6 with 5 μM M-CSFWT or 10 μM cRGD, separately or together, integrin binding buffer + 1% BSA, 4 °C, 2 h; only the binder purified

binding: binds
Substance: wild-type M-CSF (M-CSFWT) (from UniProt P09603) (ligand)

Results are given in words; binding and its absence hold for the method and conditions named. A result given as binding can be weak or reduced; the word gives no strength.
